Like-named read-outs stand apart in the source and are kept apart here. The match of structure and compound is tentative.
Assays:
TNFα = TNFα (Homo sapiens, UniProt P01375); test: HEK-Blue hTNFα reporter assay; conditions: HEK-Blue hTNFα reporter cells
Caco-2 cells = test: Caco-2 assay (permeability); format: in vitro ADME; conditions: 5 μM, 2 hours
[1] = read-out: IC50 Range, SEAP readout

Protein sequences, listed by entry. Tags and fused reporters are not part of them. Residues count along the entry.
UniProt P01375, 77-233 limits assumed: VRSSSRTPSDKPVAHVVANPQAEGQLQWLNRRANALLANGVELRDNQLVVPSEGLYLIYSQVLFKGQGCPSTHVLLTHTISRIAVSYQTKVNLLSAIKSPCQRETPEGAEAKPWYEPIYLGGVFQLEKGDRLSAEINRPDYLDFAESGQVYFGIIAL

Row | TNFα reporter, Emax (TNFα) [%] | IC50 (TNFα; read-out: TNFα reporter, IC50) [nM] | Caco-2, ER (efflux ratio) (Caco-2 cells; Papp (B-A)/Papp (A-B)) | Caco-2, Papp (A-B) (Caco-2 cells; apical to basolateral) | SMILES | IC50 (TNFα; [1]) [nM]
1 | – | – | – | – | CN1C(=O)c2cccc(OC(F)F)c2[C@H]2C[C@@H]1c1nn3ccc(-c4ccc(P(C)(C)=O)c(F)c4)cc3c12 | < 25
2 | 93 | 4.6 | 5.5 | 1.3 10^−6 cm/s | CN1C(=O)c2cccc(OC(F)F)c2[C@H]2C[C@@H]1c1nn3ccc(-c4cnc([C@]5(N)C[C@@](C)(C#N)C5)nc4)cc3c12 | < 25

Source: patent US12410179B2, “Modulators of TNF alpha activity and uses thereof” (RayThera, Inc., priority 2023, dated 2025)
